Laboratory results taken from the supplement of paper PMC4604168 (melanoma cell lines).
This is one part of the list. Repeats are few or missing, and single values can be far off.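 The apoptosis fraction was the count of cleaved-PARP antibody-stained nuclei relative to all DNA-stained nuclei, imaged in 1,536-well plates. Screening doses were set so most cells survived, and baseline and induced cleaved-PARP levels vary greatly across cell lines.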

How the values were obtained:
Assay in all cases: cleaved PARP positive nuclei fraction relative to DMSO control; melanoma cells; higher = more apoptosis
Details in all cases: library dose: low library concentration; 72 h
501Mel = test system: 501Mel
A101D = test system: A101D
A2058 = test system: A2058
A375 = test system: A375
C32 = test system: C32
CBRC008 = test system: CBRC008 (line from a melanoma biopsy)
CBRC014 = test system: CBRC014 (line from a melanoma biopsy)
CBRC016 = test system: CBRC016 (line from a melanoma biopsy)
CBRC017 = test system: CBRC017 (line from a melanoma biopsy)
CBRC034 = test system: CBRC034 (line from a melanoma biopsy)
COLO792 = test system: COLO792
COLO800 = test system: COLO800
COLO829 = test system: COLO829
G361 = test system: G361
IPC-298 = test system: IPC-298
IST-MEL1 = test system: IST-MEL1
LB2518-MEL = test system: LB2518-MEL
LOXIMVI = test system: LOXIMVI
MEL-HO = test system: MEL-HO

SMILES	cleaved PARP positive nuclei fraction (501Mel) [%]	cleaved PARP positive nuclei fraction (A101D) [%]	cleaved PARP positive nuclei fraction (A2058) [%]	cleaved PARP positive nuclei fraction (A375) [%]	cleaved PARP positive nuclei fraction (C32) [%]	cleaved PARP positive nuclei fraction (CBRC008) [%]	cleaved PARP positive nuclei fraction (CBRC014) [%]	cleaved PARP positive nuclei fraction (CBRC016) [%]	cleaved PARP positive nuclei fraction (CBRC017) [%]	cleaved PARP positive nuclei fraction (CBRC034) [%]	cleaved PARP positive nuclei fraction (COLO792) [%]	cleaved PARP positive nuclei fraction (COLO800) [%]	cleaved PARP positive nuclei fraction (COLO829) [%]	cleaved PARP positive nuclei fraction (G361) [%]	cleaved PARP positive nuclei fraction (IPC-298) [%]	cleaved PARP positive nuclei fraction (IST-MEL1) [%]	cleaved PARP positive nuclei fraction (LB2518-MEL) [%]	cleaved PARP positive nuclei fraction (LOXIMVI) [%]	cleaved PARP positive nuclei fraction (MEL-HO) [%]
CCCCCCCCCCCCCCCCCCOP(=O)([O-])OC1CC[N+](C)(C)CC1 [Perifosine] + O=C(O)[C@@H]1[O][Sb](=[O])([O][Sb]2(=[O])[O][C@H]([C@H](O)CO)[C@H](O)[C@H](C(=O)O)[O]2)[O][C@H]([C@H](O)CO)[C@@H]1O [stibogluconate] (first compound 0.4 µM, partner dose 2 µM)	75.3	85.8	95.5	46.9	89.2	56.6	98.3	128	93.8	81.5	96.7	158	83.8	61.1	42.3	63.6	350	150	281
CC[C@]1(O)C[C@H]2CN(CCc3c([nH]c4ccccc34)[C@@](C(=O)OC)(c3cc4c(cc3OC)N(C=O)[C@H]3[C@@](O)(C(=O)OC)[C@H](OC(C)=O)[C@]5(CC)C=CCN6CC[C@]43[C@@H]65)C2)C1 [vincristine] + Nc1nc(F)nc2c1ncn2[C@@H]1O[C@H](CO)[C@@H](O)[C@@H]1O [fludarabine] (first compound 0.0001 µM, partner dose 0.2 µM)	11200	159	904	4430	116	161	104	106	99.6	86.5	101	52.1	98.4	182	44.9	158	97.8	21.5	95.1
O=C(/C=C/c1cccnc1)NCCCCC1CCN(C(=O)c2ccccc2)CC1 + Cn1c(Nc2ccc(C(F)(F)F)cc2)nc2cc(Oc3ccnc(-c4ncc(C(F)(F)F)[nH]4)c3)ccc21 [CHIR265] (first compound 0.01 µM, partner dose 0.08 µM)	50	72	167	347	107	1350	120	331	408	1140	107	186	122	2150	88.9	62.6	190	122	130
COc1cc([C@@H]2c3cc4c(cc3[C@@H](O[C@@H]3O[C@@H]5CO[C@@H](C)O[C@H]5[C@H](O)[C@H]3O)[C@H]3COC(=O)[C@H]23)OCO4)cc(OC)c1O [etoposide] + CNC(=O)c1cc(Oc2ccc(NC(=O)Nc3ccc(Cl)c(C(F)(F)F)c3)cc2)ccn1 [sorafenib] (first compound 0.02 µM, partner dose 0.4 µM)	78	123	108	58.5	86.3	105	186	33.1	95.1	59.7	76	109	61.4	57	86.9	122	109	132	53.5
N#CC[C@H](C1CCCC1)n1cc(-c2ncnc3[nH]ccc23)cn1 [ruxolitinib] + O=c1[nH]nc(Sc2ncc([N+](=O)[O-])s2)n1-c1ccc2c(c1)OCCO2 [BI78D3] (first compound 1 µM, partner dose 0.2 µM)	68.6	39.1	64.4	24.5	160	156	91.5	60.3	91	110	89.4	48.2	74.8	93.6	79.7	131	78.8	61	184
COc1cc([C@@H]2c3cc4c(cc3[C@@H](O[C@@H]3O[C@@H]5CO[C@@H](C)O[C@H]5[C@H](O)[C@H]3O)[C@H]3COC(=O)[C@H]23)OCO4)cc(OC)c1O [etoposide] + C[C@@H](N)c1ccc(C(=O)Nc2ccnc3[nH]ccc23)cc1 [RKI983] (first compound 0.02 µM, partner dose 0.4 µM)	72.2	140	321	166	88.2	92.6	135	72.2	79.4	85.3	134	150	106	72.8	96.2	122	129	56.2	139
O=c1[nH]nc(Sc2ncc([N+](=O)[O-])s2)n1-c1ccc2c(c1)OCCO2 + CC1(C)CCC(c2ccc(Cl)cc2)=C(CN2CCN(c3ccc(C(=O)NS(=O)(=O)c4ccc(N[C@H](CCN5CCOCC5)CSc5ccccc5)c(S(=O)(=O)C(F)(F)F)c4)cc3)CC2)C1 [ABT263] (first compound 0.2 µM, partner dose 0.4 µM)	71.2	264	183	162	456	385	377	370	320	301	495	114	93.7	166	175	78.5	259	349	146
N#CC[C@H](C1CCCC1)n1cc(-c2ncnc3[nH]ccc23)cn1 [ruxolitinib] + CC(=O)c1c(C)c2cnc(Nc3ccc(N4CCNCC4)cn3)nc2n(C2CCCC2)c1=O [palbociclib] (first compound 1 µM, partner dose 0.04 µM)	125	59.8	98.7	207	86.6	93.8	125	35	114	61.4	118	60.3	67.6	176	185	283	51.4	179	145
O=C(Nc1cc(C(F)(F)F)cc(C(F)(F)F)c1)c1cc(Cl)ccc1O + COc1ccc(C2=N[C@@H](c3ccc(Cl)cc3)[C@@H](c3ccc(Cl)cc3)N2C(=O)N2CCNC(=O)C2)c(OC(C)C)c1 [Nutlin-3] (first compound 0.016 µM, partner dose 0.1 µM)	90.5	89.4	170	129	72.2	50.2	109	52.2	99.6	63.8	89.3	135	135	56.4	48.2	125	209	96.5	84.6
Cc1cn(-c2cc(NC(=O)c3ccc(C)c(Nc4nccc(-c5cccnc5)n4)c3)cc(C(F)(F)F)c2)cn1 [nilotinib] + Nc1cccc2c1CN(C1CCC(=O)NC1=O)C2=O [lenalidomide] (first compound 0.2 µM, partner dose 1 µM)	88.9	83.8	82.2	128	81.4	116	102	289	129	66.6	206	193	118	95.8	130	88.3	101	102	114
N#CC[C@H](C1CCCC1)n1cc(-c2ncnc3[nH]ccc23)cn1 [ruxolitinib] + COCC[n+]1c2c(n(Cc3cnccn3)c1C)C(=O)c1ccccc1C2=O [YM155] (first compound 1 µM, partner dose 0.0004 µM)	75.6	82.8	119	63.7	80.9	416	80.9	175	117	34.9	85.2	63.8	94.5	121	47.2	67.6	120	51.2	34.8
CC[C@]1(O)C[C@H]2CN(CCc3c([nH]c4ccccc34)[C@@](C(=O)OC)(c3cc4c(cc3OC)N(C=O)[C@H]3[C@@](O)(C(=O)OC)[C@H](OC(C)=O)[C@]5(CC)C=CCN6CC[C@]43[C@@H]65)C2)C1 [vincristine] + CO[C@H]1C[C@@H]2CC[C@@H](C)[C@@](O)(O2)C(=O)C(=O)N2CCCC[C@H]2C(=O)O[C@H]([C@H](C)C[C@@H]2CC[C@@H](OCCO)[C@H](OC)C2)CC(=O)[C@H](C)/C=C(\C)[C@@H](O)[C@@H](OC)C(=O)[C@H](C)C[C@H](C)/C=C/C=C/C=C/1C [everolimus] (first compound 0.0001 µM, partner dose 0.02 µM)	490	173	2150	888	119	508	89.5	92.5	107	113	91.8	84.1	120	122	162	181	66.6	168	79.4
O=c1[nH]nc(Sc2ncc([N+](=O)[O-])s2)n1-c1ccc2c(c1)OCCO2 + C#Cc1cccc(Nc2ncnc3cc(OCCOC)c(OCCOC)cc23)c1 [erlotinib] (first compound 0.2 µM, partner dose 0.8 µM)	99.2	284	76.3	87.6	239	174	93.2	69.9	220	76.3	184	81.8	50.6	99.7	46.6	167	104	81.5	111
O=C(/C=C/c1cccnc1)NCCCCC1CCN(C(=O)c2ccccc2)CC1 + Clc1ccc(Nc2nnc(Cc3ccncc3)c3ccccc23)cc1 [vatalanib] (first compound 0.01 µM, partner dose 2 µM)	94.6	159	145	119	72.4	1680	111	1010	373	318	347	339	263	4800	73.5	194	218	201	435
Cc1ccc(Nc2nccc(N(C)c3ccc4c(C)n(C)nc4c3)n2)cc1S(N)(=O)=O [Pazopanib] + NC(=O)c1ccc(N(C(N)=O)c2c(F)cccc2F)nc1-c1ccc(F)cc1F [VX702] (first compound 0.4 µM, partner dose 0.4 µM)	128	105	25.3	94.3	66.2	66.2	115	69.1	119	63.4	105	123	68.5	121	110	255	244	103	228
O=C(/C=C/c1cccnc1)NCCCCC1CCN(C(=O)c2ccccc2)CC1 + O=C(O)c1ccc2c(c1)nc(Nc1cccc(Cl)c1)c1ccncc12 [CX4945] (first compound 0.01 µM, partner dose 0.4 µM)	146	139	30.7	40.2	75.7	1490	122	1390	509	3380	844	166	280	2600	115	99.8	496	179	255

Copied from the list:
COc1cc([C@@H]2c3cc4c(cc3[C@@H](O[C@@H]3O[C@@H]5CO[C@@H](C)O[C@H]5[C@H](O)[C@H]3O)[C@H]3COC(=O)[C@H]23)OCO4)cc(OC)c1O [etoposide] + C[C@@H](N)c1ccc(C(=O)Nc2ccnc3[nH]ccc23)cc1 [RKI983] (first compound 0.02 µM, partner dose 0.4 µM) – cleaved PARP positive nuclei fraction (IST-MEL1) [%]: 122
Cc1ccc(Nc2nccc(N(C)c3ccc4c(C)n(C)nc4c3)n2)cc1S(N)(=O)=O [Pazopanib] + NC(=O)c1ccc(N(C(N)=O)c2c(F)cccc2F)nc1-c1ccc(F)cc1F [VX702] (first compound 0.4 µM, partner dose 0.4 µM) – cleaved PARP positive nuclei fraction (CBRC034) [%]: 63.4
